The target in assay [1] is T1, DNAJC7 (human (endogenous in iPSC-derived motor neurons)) (UniProt Q99615).
T1 sequence: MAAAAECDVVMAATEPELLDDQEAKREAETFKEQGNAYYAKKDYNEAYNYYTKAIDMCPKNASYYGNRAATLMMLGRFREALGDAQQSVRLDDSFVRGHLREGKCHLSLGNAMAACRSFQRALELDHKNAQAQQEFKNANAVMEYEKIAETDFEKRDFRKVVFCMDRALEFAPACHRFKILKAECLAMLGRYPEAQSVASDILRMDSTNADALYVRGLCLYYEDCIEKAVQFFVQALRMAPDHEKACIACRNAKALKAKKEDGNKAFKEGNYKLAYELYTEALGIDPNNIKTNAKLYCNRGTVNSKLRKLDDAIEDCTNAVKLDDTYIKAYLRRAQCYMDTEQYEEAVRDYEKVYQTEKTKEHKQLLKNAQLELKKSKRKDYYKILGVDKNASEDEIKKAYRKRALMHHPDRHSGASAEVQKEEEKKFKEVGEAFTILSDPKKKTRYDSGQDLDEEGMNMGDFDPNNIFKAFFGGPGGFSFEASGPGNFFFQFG
Kind of assay: affinity purification with mass spectrometry; immunoprecipitation of endogenous DNAJC7 from wild-type iPSC-derived human motor neurons (DNAJC7 antibody covalently linked to beads), IgG control IP, LC-MS/MS, 3 independent differentiations.

Chains of the proteins cited; added tags and fusions are not shown.
UniProt P35637: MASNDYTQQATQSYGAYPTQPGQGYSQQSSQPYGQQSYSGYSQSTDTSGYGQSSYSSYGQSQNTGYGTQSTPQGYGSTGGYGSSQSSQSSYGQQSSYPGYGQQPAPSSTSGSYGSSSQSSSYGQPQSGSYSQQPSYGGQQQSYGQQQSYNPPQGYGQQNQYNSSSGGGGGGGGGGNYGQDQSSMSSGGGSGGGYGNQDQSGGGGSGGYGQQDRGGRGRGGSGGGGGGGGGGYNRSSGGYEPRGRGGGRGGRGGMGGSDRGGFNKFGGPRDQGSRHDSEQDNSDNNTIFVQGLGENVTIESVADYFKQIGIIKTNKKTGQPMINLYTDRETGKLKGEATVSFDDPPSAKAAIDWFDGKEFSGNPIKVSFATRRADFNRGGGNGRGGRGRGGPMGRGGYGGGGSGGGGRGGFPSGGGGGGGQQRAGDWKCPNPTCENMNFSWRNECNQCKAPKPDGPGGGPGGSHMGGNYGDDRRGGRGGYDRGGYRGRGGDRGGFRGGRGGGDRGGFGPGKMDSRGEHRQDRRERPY
UniProt P68363: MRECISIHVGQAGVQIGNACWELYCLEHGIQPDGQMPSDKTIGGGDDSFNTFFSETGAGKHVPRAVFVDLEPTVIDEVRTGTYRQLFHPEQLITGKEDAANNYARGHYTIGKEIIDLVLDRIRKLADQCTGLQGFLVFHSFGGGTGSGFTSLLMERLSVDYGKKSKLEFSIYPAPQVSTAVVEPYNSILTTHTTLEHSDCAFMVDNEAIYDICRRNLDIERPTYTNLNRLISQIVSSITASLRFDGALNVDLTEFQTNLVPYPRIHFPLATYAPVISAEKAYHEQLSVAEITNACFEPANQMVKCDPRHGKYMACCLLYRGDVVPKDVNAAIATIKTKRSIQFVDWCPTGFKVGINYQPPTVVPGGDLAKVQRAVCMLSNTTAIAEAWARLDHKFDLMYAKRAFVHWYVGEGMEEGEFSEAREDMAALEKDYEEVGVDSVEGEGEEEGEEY
UniProt P68366: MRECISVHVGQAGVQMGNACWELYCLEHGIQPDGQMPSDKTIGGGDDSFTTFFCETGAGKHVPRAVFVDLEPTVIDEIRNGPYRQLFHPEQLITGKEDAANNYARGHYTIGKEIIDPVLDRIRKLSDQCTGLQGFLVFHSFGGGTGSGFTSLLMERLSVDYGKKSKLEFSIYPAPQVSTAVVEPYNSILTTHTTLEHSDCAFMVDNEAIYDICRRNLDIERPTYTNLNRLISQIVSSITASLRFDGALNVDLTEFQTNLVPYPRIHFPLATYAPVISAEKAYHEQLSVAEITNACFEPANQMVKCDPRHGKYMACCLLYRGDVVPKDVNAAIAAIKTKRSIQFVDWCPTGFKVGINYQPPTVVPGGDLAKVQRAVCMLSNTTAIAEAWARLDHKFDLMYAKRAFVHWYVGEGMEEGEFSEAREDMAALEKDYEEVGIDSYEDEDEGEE

Assay [2] addresses T1, DNAJC7 (human (endogenous in iPSC-derived motor neurons)). The assay is described as above. This is another data set of the same source.

Read-outs that look alike come from different tables or passages of the source. Results are given in words; binding and its absence hold for the method and conditions named. In cells and extracts the contact can be indirect. Here binding means that the protein was enriched with, or labelled near, the bait; the list need not be complete. For some assays here: A no says only that the protein was not detected with the bait.

Drawing on doi:10.1101/2024.12.01.626216, this text covers binding for five molecules.

Turning to FUS (from UniProt P35637 1-526), the binding result in assay [1] is reported as “no binding”. Same read-out and setting: under HNRNPK (from UniProt P61978 1-463) stands “binds”. Same read-out and setting: under TUBA1B (from UniProt P68363 1-451) stands “binds”.

Consider TUBA4A (from UniProt P68366 1-448), for which the binding result in assay [1] was “binds”.

B1: MATR3 (protein, UniProt P43243 1-847)
chain: MSKSFQQSSLSRDSQGHGRDLSAAGIGLLAAATQSLSMPASLGRMNQGTARLASLMNLGMSSSLNQQGAHSALSSASTSSHNLQSIFNIGSRGPLPLSSQHRGDADQASNILASFGLSARDLDELSRYPEDKITPENLPQILLQLKRRRTEEGPTLSYGRDGRSATREPPYRVPRDDWEEKRHFRRDSFDDRGPSLNPVLDYDHGSRSQESGYYDRMDYEDDRLRDGERCRDDSFFGETSHNYHKFDSEYERMGRGPGPLQERSLFEKKRGAPPSSNIEDFHGLLPKGYPHLCSICDLPVHSNKEWSQHINGASHSRRCQLLLEIYPEWNPDNDTGHTMGDPFMLQQSTNPAPGILGPPPPSFHLGGPAVGPRGNLGAGNGNLQGPRHMQKGRVETSRVVHIMDFQRGKNLRYQLLQLVEPFGVISNHLILNKINEAFIEMATTEDAQAAVDYYTTTPALVFGKPVRVHLSQKYKRIKKPEGKPDQKFDQKQELGRVIHLSNLPHSGYSDSAVLKLAEPYGKIKNYILMRMKSQAFIEMETREDAMAMVDHCLKKALWFQGRCVKVDLSEKYKKLVLRIPNRGIDLLKKDKSRKRSYSPDGKESPSDKKSKTDGSQKTESSTEGKEQEEKSGEDGEKDTKDDQTEQEPNMLLESEDELLVDEEEAAALLESGSSVGDETDLANLGDVASDGKKEPSDKAVKKDGSASAAAKKKLKKVDKIEELDQENEAALENGIKNEENTEPGAESSENADDPNKDTSENADGQSDENKDDYTIPDEYRIGPYQPNVPVGIDYVIPKTGFYCKLCSLFYTNEEVAKNTHCSSLPHYQKLKKFLNKLAEERRQKKET
In the case of B1, the binding entry in assay [2] is “binds”.
